Measurements reported in PubChem BioAssay AID1259424 (University of Nebraska Medical Center, 2018)

Aim: 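Find knockdowns that reproduce the expression shifts seen after KSR1 loss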 (primary screen)
System: human HCT116 colon cancer cells
Reagents: siRNA pool against human genes, 50 nM
Measurement: 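Six signature mRNAs by branched-DNA multiplex assay, scaled to two housekeeping genes and non-targeting median, log2; matched to mean KSR1 knockdown profile by Pearson correlation and euclidean distance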
Reading the numbers: mean correlation with KSR1 profile and KSR1 correlation: higher = expression change more like KSR1 knockdown; mean distance from KSR1 profile: higher = expression change less like KSR1 knockdown
In all, the deposit lists about 14,000 reagents; below is a random part of them. 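Higher correlation or smaller distance means closer resemblance to KSR1 loss; control wells, including KSR1 knockdowns, recur on many plates.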 Reagent sequences are not shown. Not stated in the record: the time to read-out.

Target gene | mean correlation with KSR1 profile | mean distance from KSR1 profile | KSR1 correlation, replicate 1 | KSR1 correlation, replicate 2 | KSR1 correlation, replicate 3
DTX1 | 0.691 | 1.36 | 0.429 | 0.589 | 0.645
RNASE1 | -0.341 | 1.66 | -0.228 | -0.545 | -0.123
NMUR2 | 0.248 | 1.79 | 0.253 | 0.665 | 0.0819
DECR2 | 0.0777 | 4.02 | 0.118 | 0.022 | 0.348
PRELP | -0.509 | 1.53 | -0.19 | -0.299 | -0.328
ACSM5 | 0.0636 | 4.79 | 0.0107 | 0.00676 | 0.0928
JCAD | -0.634 | 1.81 | -0.53 | -0.952 | -0.682
P2RX5 | -0.298 | 3.04 | -0.252 | -0.299 | -0.407
EEF1G | 0.282 | 1.94 | 0.307 | 0.253 | 0.149
PHYKPL | -0.0812 | 2.49 | -0.197 | 0.106 | -0.298
NOXA1 | 0.0785 | 1.31 | 0.463 | -0.232 | -0.179
HMGN5 | 0.544 | 2.55 | 0.588 | 0.607 | 0.453
CROT | 0.169 | 2.95 | 0.113 | 0.313 | 0.223
ALG1 | 0.726 | 2.86 | 0.863 | 0.531 | 0.533
RELN | 0.196 | 1.76 | 0.00105 | 0.249 | 0.213
TLX3 | -0.256 | 3.38 | -0.553 | -0.352 | -0.331
BRMS1 | -0.0404 | 4.61 | 0.22 | -0.108 | -0.182
AGPAT3 | 0.538 | 3.12 | 0.689 | 0.634 | 0.314
FCRL4 | -0.688 | 2.98 | -0.699 | -0.726 | -0.719
DUSP9 | 0.107 | 3.49 | 0.153 | 0.142 | -0.0695
SH3GL1 | 0.474 | 2.01 | 0.486 | 0.577 | 0.377
MAN1A2 | -0.703 | 1.94 | -0.697 | -0.345 | -0.318
TDO2 | 0.0713 | 1.66 | 0.178 | -0.108 | 0.165
TPMT | 0.367 | 1.64 | 0.316 | 0.396 | 0.344
PRPF18 | 0.55 | 1.3 | 0.44 | 0.451 | 0.35
DERL1 | -0.446 | 3.57 | -0.473 | -0.605 | -0.556
ZNF461 | -0.167 | 1.67 | -0.251 | -0.458 | -0.374
DUSP2 | 0.955 | 2 | 0.827 | 0.767 | 0.726
UBE2G2 | 0.0302 | 1.64 | 0.144 | -0.174 | -0.0462
INSR | 0.126 | 2.41 | 0.232 | 0.134 | 0.0665
ABRA | 0.0919 | 1.66 | 0.0247 | -0.036 | 0.474
MAIP1 | 0.0296 | 2.19 | 0.188 | -0.0256 | 0.0128
FASN | -0.606 | 3.99 | -0.591 | -0.635 | -0.643
POLR3F | -0.539 | 3.63 | -0.439 | -0.477 | -0.575
TPD52L2 | -0.0479 | 1.35 | -0.0291 | -0.0253 | -0.11
TRIO | 0.64 | 1.77 | 0.732 | 0.576 | 0.316
LRRC40 | 0.213 | 5.03 | 0.303 | -0.0684 | 0.18
P4HA2 | -0.176 | 1.73 | -0.0481 | -0.381 | 0.092
VAMP4 | -0.228 | 2.66 | -0.1 | 0.587 | -0.559
CYP2C19 | -0.644 | 2.97 | -0.543 | -0.676 | -0.721
MATN4 | 0.345 | 3.04 | 0.258 | 0.381 | 0.397
GPR62 | 0.153 | 2.37 | -0.0121 | 0.234 | 0.154
HTRA1 | 0.742 | 1.2 | 0.794 | 0.684 | 0.644
NEDD8 | -0.653 | 2.17 | -0.737 | -0.499 | -0.624
ATG4B | -0.0465 | 2.5 | 0.176 | -0.244 | -0.00151
GPR31 | 0.658 | 2.86 | 0.616 | 0.671 | 0.672
PARPBP | -0.761 | 1.84 | -0.703 | -0.545 | -0.528
TAS2R60 | 0.238 | 2.78 | 0.232 | 0.134 | 0.519
GPC5 | -0.642 | 1.87 | -0.637 | -0.8 | -0.473
STATH | -0.468 | 1.49 | -0.263 | -0.439 | -0.486

Laid out differently: entries from further up
{"Target gene": "TRIO", "mean correlation with KSR1 profile": 0.64, "mean distance from KSR1 profile": 1.77, "KSR1 correlation, replicate 1": 0.732, "KSR1 correlation, replicate 2": 0.576, "KSR1 correlation, replicate 3": 0.316}
{"Target gene": "LRRC40", "mean correlation with KSR1 profile": 0.213, "mean distance from KSR1 profile": 5.03, "KSR1 correlation, replicate 1": 0.303, "KSR1 correlation, replicate 2": -0.0684, "KSR1 correlation, replicate 3": 0.18}
{"Target gene": "P4HA2", "mean correlation with KSR1 profile": -0.176, "mean distance from KSR1 profile": 1.73, "KSR1 correlation, replicate 1": -0.0481, "KSR1 correlation, replicate 2": -0.381, "KSR1 correlation, replicate 3": 0.092}
{"Target gene": "VAMP4", "mean correlation with KSR1 profile": -0.228, "mean distance from KSR1 profile": 2.66, "KSR1 correlation, replicate 1": -0.1, "KSR1 correlation, replicate 2": 0.587, "KSR1 correlation, replicate 3": -0.559}
